According to publication doi:10.1101/2020.02.28.969071:
Like-named read-outs stand apart in the source and are kept apart here. No constants are given. Whether binding was seen depends on the method and setting. Some entries that bind do so weakly or less than the wild type. Values belong to the substance of their own block, whether it stands above or below them.

By UniProt entry, the sequences of proteins in these tests, tags left out. Where a name states a change or a piece, a line headed by the entry shows the natural chain unless it says otherwise. Chains listed by the source or under a name are the forms on record and can include a tag or linker.
UniProt P0CF65: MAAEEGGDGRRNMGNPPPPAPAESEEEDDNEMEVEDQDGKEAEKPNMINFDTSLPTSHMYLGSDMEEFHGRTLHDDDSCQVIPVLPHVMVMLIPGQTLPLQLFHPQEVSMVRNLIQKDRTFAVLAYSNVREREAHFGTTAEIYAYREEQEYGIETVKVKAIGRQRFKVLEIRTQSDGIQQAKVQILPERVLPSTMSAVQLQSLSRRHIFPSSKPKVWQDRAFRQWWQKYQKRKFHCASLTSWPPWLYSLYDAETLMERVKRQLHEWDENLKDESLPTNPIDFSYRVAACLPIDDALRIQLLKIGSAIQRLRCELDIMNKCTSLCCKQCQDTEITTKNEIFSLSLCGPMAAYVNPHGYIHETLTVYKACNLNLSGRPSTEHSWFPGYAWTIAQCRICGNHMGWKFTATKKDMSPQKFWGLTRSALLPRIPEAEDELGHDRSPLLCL
UniProt Q8C7D2: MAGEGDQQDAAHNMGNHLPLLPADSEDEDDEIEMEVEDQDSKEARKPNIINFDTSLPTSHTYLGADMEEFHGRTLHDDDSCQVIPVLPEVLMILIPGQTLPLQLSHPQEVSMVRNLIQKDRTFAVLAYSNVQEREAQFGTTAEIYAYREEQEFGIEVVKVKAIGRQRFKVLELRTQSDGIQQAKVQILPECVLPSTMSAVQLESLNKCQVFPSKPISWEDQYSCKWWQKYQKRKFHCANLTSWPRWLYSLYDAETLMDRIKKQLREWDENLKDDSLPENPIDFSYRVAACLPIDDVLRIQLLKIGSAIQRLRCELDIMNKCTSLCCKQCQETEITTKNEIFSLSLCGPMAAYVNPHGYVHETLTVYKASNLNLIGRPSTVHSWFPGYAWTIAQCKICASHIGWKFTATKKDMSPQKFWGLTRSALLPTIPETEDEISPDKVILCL
FLAG-GST-GgSall4 (A0A8V0YRY0, form named): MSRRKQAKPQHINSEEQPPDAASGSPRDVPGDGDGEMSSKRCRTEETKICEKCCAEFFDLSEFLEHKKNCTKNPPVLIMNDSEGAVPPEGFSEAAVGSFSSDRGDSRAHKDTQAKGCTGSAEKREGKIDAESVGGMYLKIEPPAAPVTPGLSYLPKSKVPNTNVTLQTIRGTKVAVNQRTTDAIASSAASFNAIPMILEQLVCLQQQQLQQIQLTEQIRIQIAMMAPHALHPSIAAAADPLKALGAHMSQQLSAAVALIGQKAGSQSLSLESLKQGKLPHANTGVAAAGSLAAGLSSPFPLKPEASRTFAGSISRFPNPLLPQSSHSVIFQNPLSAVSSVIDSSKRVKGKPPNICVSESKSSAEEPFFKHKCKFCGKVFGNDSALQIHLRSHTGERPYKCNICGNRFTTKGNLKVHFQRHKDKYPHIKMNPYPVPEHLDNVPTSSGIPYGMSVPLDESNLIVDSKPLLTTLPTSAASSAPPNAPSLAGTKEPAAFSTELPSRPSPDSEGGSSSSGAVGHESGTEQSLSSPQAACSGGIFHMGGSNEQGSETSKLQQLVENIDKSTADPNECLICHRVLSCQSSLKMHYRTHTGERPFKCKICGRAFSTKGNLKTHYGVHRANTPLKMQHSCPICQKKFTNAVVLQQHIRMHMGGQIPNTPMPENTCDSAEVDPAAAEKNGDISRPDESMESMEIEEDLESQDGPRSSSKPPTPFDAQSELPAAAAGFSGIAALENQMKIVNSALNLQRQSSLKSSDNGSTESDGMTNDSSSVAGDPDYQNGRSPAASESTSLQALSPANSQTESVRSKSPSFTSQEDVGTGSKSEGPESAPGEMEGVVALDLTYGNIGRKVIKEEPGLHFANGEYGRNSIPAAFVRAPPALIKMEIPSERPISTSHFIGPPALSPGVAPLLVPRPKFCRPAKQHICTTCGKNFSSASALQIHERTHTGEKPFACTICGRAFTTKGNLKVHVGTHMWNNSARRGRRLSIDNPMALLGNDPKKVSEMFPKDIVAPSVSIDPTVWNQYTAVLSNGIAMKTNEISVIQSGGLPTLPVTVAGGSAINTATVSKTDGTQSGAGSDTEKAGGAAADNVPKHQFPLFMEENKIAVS
UniProt Q8BX22: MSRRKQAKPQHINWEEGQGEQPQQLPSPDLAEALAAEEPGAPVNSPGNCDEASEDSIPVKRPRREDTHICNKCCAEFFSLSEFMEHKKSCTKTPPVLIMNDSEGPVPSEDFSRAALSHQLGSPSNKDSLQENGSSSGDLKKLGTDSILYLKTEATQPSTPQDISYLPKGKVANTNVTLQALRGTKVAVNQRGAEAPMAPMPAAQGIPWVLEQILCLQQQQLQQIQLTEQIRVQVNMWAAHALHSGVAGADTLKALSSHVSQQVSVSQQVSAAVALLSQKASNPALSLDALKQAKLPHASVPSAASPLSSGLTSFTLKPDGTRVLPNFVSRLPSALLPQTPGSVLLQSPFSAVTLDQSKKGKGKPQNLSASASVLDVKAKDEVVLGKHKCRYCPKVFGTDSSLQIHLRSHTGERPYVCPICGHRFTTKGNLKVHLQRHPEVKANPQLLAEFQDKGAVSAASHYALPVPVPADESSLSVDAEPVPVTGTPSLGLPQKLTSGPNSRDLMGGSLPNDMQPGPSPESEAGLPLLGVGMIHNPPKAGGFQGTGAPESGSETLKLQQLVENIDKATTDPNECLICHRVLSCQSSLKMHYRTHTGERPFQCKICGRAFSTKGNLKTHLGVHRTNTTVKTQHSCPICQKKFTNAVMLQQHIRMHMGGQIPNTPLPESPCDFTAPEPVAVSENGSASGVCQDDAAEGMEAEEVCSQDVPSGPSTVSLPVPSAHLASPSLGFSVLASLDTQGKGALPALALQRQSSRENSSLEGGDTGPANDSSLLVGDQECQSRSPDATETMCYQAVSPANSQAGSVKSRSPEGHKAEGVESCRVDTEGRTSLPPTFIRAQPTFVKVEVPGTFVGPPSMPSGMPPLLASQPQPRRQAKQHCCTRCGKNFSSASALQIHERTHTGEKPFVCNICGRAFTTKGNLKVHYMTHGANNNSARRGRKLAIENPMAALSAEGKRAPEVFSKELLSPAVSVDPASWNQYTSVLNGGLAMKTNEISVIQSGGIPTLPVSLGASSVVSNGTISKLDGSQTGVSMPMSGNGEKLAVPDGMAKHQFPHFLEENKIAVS

Assays:
Assay in all cases: AlphaScreen or HTRF
[1] = target: biotinylated GgCrbn, wild type (chicken) (UniProt P0CF65)
[2] = target: biotinylated HsCRBN (bls-CRBN), wild type (human) (UniProt Q96SW2)
[3] = target: biotinylated HsCRBN (bls-CRBN), wild type (human) (UniProt Q96SW2); remark: listed apart in the source
[4] = target: biotinylated MmCrbn, wild type (mouse) (UniProt Q8C7D2)

binding [1]: no binding
Substance: FLAG-GST-GgSall4 (from UniProt A0A8V0YRY0 1-1108)

binding [2]: binds
binding [3]: binds
Substance: FLAG-GST-HNRNPK (from UniProt P61978 1-463)

binding [4]: no binding
Substance: FLAG-GST-MmSall4 (from UniProt Q8BX22 1-1067)
